Source: patent US20220251152A1, “COMPOSITIONS AND METHODS FOR SELECTIVE PROTEIN DEGRADATION” (Novartis AG, priority 2019, published 2022)
For at least one compound, name, drawing or mass did not settle the structure.

Tests used:
Assay type in all cases: cell-based, human
[1] = test system: CAR19 fused to HilD tag and/or FurON; test: Flow cytometry of surface CAR expression on JNL cells, 10 μM lenalidomide and/or bazedoxifene 24 hours; details: FurON-CAR19 constructs with or without the HilD tag
[2] = test system: CAR19_16GS_HilD tag and FurON_CAR19_16GS_HilD tag (NFAT luciferase reporter); test: JNL NFAT luciferase reporter assay, 10 μM lenalidomide, co-culture with Nalm6, K562 or K562+CD19 cells; details: construct 767 co-cultured with CD19+ cells
[3] = test system: HilD-tagged CAR19 or FurON-CAR19 (NFAT luciferase reporter); test: JNL NFAT luciferase reporter assay, lenalidomide dose-response at three treatment time points; details: constructs comprising FurON, in the presence of CD19+ cells

## Cc1c(-c2ccc(O)cc2)n(Cc2ccc(OCCN3CCCCCC3)cc2)c2ccc(O)cc12 [bazedoxifene]
[1]
  dependence of surface CAR expression on bazedoxifene: surface CAR expression was only detected in the presence of bazedoxifene
[2]
  dependence of luminescence signal on bazedoxifene: luminescence signals were only observed
[3]
  requirement of bazedoxifene for reporter activation: necessary to activate the NFAT-luciferase reporter
